The record followed here is article PMC5696171.

In this test the target is T1, GST-ZO-1 (1520-1745) (UniProt P39447).
T1 sequence: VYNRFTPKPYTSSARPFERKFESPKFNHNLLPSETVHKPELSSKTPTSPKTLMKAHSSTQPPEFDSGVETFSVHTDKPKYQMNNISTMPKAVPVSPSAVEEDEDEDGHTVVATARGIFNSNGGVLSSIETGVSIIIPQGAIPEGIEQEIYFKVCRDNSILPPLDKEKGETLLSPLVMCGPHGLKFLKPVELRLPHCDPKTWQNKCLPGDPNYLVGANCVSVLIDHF
In words: pull-down; GST-ZO-1 (1520-1745), ~10 ug, on glutathione-Sepharose 4B beads, incubated with lysates of transfected 293T cells; washed with buffer A (20 mM Tris-HCl, 150 mM NaCl, 1 mM EDTA, 10% glycerol, 1% NP-40, pH 7.4); eluted with 25 mM glutathione; western blot with anti-myc; only the target purified. For orientation: In western blotting, separated proteins are transferred to a membrane and probed.

No constants are given. Whether binding was seen depends on the method and setting. Binding seen in cells or lysates may run through a third protein. Where a sequence is shown, tags or fusion partners need not be part of it.

On to myc-tagged ARHGEF11exon38(+), for which the binding result was “no binding”.
